Laboratory results: paper PMC10853454, “ADAM19 cleaves the PTH receptor and associates with brachydactyly type E” (Life Science Alliance, 2024)
These are yes or no findings as the source states them, for the method shown. In cells and extracts the contact can be indirect. Some results given as binding are weak or reduced against the parent protein; the word gives no strength.

Protein sequences, listed by entry. Tags and fused reporters are not part of them. Residues count along the entry.
UniProt Q03431, residues 27-593: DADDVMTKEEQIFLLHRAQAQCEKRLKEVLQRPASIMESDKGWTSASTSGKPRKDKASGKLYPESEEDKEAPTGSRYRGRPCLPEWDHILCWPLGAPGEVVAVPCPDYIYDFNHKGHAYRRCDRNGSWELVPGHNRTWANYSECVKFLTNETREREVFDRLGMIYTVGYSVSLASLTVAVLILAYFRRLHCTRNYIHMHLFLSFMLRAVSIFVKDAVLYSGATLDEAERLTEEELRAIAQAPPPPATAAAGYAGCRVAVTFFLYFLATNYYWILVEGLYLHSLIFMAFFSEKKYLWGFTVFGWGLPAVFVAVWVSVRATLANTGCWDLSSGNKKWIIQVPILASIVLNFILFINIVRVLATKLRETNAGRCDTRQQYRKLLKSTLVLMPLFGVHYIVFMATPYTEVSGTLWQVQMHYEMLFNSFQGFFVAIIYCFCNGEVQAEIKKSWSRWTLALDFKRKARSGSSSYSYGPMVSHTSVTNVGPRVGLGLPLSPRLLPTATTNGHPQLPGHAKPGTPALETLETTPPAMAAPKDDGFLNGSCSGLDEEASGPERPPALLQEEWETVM
UniProt P32121: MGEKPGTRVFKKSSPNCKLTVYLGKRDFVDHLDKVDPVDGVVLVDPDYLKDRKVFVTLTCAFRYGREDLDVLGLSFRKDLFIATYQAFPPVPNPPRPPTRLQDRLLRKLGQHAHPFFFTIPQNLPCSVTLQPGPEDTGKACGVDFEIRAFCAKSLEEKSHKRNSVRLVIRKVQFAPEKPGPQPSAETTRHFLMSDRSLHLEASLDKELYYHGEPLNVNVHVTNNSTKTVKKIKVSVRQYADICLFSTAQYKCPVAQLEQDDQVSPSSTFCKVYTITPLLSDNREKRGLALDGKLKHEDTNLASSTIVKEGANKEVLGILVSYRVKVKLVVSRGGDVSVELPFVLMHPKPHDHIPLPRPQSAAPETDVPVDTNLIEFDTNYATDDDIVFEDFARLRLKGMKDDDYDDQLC

Biological target: PTHR1-Nanoluc (parathyroid hormone receptor 1, expressed without ADAM19) (human) (UniProt Q03431)
Assay: FRET or BRET; NanoBRET in living U2OS and SaOS (Saos2) cells transiently transfected with PTHR1-Nanoluc and β-arrestin2-cpVenus, with or without ADAM19 (ratio 1:1:2); read after addition of PTH or PTHrP; furimazine substrate; 37°C

- binding: binds
Substance: β-arrestin2-cpVenus (from UniProt P32121 1-409)
